No constants are given. Whether binding was seen depends on the method and setting. Some binding calls cover weakened binding; strength is not graded here.
Columns and labels:
[1] = molecular target: LILRB4 on human monocytic AML THP-1 cells (human) (UniProt Q8NHJ6); assay: flow cytometry, wild-type against lilrb4-knockout THP-1 cells
[2] = molecular target: LILRB4 on human monocytic AML THP-1 cells (human) (UniProt Q8NHJ6); assay: flow cytometry, wild-type against lilrb4-knockout THP-1 cells; anti-His tag-APC alone as negative control

By UniProt entry, the sequences of proteins in these tests, tags left out. Residues count along the entry.
UniProt Q8NHJ6, residues 22-448: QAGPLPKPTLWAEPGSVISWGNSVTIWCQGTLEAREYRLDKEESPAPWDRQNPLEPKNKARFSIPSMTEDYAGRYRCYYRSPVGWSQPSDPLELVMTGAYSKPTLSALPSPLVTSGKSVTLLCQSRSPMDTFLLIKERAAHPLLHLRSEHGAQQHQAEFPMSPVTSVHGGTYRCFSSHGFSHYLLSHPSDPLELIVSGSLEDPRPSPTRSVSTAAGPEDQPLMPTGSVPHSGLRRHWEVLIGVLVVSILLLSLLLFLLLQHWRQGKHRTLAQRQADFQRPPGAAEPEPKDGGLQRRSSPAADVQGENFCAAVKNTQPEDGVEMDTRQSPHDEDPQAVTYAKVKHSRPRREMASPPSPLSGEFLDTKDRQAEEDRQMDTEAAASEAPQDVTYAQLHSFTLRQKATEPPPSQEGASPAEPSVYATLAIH
UniProt P02649, residues 19-317: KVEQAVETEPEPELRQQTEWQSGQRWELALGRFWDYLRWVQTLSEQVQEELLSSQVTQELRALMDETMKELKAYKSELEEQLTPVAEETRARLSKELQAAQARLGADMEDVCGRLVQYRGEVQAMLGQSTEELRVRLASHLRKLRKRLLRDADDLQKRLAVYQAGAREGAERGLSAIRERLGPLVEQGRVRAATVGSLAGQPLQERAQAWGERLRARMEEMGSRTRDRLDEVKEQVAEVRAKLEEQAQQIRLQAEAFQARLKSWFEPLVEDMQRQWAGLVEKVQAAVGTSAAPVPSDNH

For “recombinant APOE (from UniProt P02649 19-317) (ligand)”, the binding [1] was “binds” and the binding [2] was “binds”.
